Measurements published in patent publication CN115536746A.
No constants are given. Whether binding was seen depends on the method and setting. Some entries that bind do so weakly or less than the wild type. Sequences can lack the tags named with a protein.

T1: hCRTAM蛋白 (screening ELISA, tag not stated) (human) (UniProt O95727)
T1 sequence (looked up): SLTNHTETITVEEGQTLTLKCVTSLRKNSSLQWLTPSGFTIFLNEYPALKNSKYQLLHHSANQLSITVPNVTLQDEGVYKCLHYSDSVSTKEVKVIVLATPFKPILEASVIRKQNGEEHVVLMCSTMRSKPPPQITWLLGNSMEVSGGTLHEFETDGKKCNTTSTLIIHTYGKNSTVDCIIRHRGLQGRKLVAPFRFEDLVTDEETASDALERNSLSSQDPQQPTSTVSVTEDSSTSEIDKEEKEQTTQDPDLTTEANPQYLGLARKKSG

T2: cCRTAM-His (猴源CRTAM蛋白胞外区 + His标签) (猴源 (食蟹猴, cynomolgus monkey))
T2 sequence: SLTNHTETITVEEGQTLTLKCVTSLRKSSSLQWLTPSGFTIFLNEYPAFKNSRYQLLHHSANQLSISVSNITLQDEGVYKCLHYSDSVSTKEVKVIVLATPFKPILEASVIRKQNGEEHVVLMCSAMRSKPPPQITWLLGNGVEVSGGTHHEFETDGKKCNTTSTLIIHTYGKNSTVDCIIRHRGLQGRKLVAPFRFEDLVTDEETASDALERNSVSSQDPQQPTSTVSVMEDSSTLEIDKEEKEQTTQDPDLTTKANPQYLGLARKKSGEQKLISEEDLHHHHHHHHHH

B1: C94 (鼠源单克隆抗体) (antibody, V domains shown)
VH: EVMLVESGGGLVKPGGSLKLSCAASGFTFSTSAMSWVRQTPEKRLEWVATISSGGDYTYYSDNVKGRFTISRDNAKSTLYLQMSSLRSEDTAMYYCTLGYDEADYWGQGSTLTVSS
VL: DIQMTQTTSSLSASLGDRVTISCRASQDISNYLNWYQQKPDGTVKLLIYYTSRLHSGVPSRFSGSGSGTDYSLTISNLEEEDIATYFCQQGDTFPWTFGGGTKLEIK
B2: C110 (鼠源单克隆抗体) (antibody, V domains shown)
VH: QVQLQQSGPELVKPGASVRLSCKASGYTFTNNDINWVKQRPGQGLEWIGWIYPRDGSTQYNEKFRGKATLTVDTSSSTAYMEVHSLTSEDSAVYFCARGLVDYWGQGTTLTVSS
VL: DVVMTQTPLSLPVSLGDHASISCRSSQSLVHSNGNTYLHWYLQKPGQSPKLLIYKVSNRFSGVPDRFSGSGSGTDFTLKISRVEAEDLGVYFCSQSTRVPWTFGGGTKLEIK
B3: C124 (鼠源单克隆抗体) (antibody, V domains shown)
VH: QVQLQQSGAELMKPGASVKISCKATGYSFSNYWIEWVRQRPGHGLEWIGEILPGVPTIYYNGKFKDKATFTADASSNTAHMRLTGLTSEDSAVYYCSRDPWFAYWGQGTLVTVSA
VL: DILLTQSPAILSVSPGERVSFSCRASQSIGTSLHWFQQRTNGSPRLLIKYASQSISGLPSRFGGSGSGTDFTLSISSVESEDIADYYCQQSNNWPFTFGGGTKLEIK
B4: HuC94-31 (antibody, V domains shown)
VH: EVQLLESGGGLVQPGGSLRLSCAASGFTFSTSAMSWVRQAPGKGLEWVATISSGGDYTYYSDNVKGRFTISRDNSKSTLYLQMNSLRAEDTAVYYCTLGYDEADYWGQGSLLTVSS
VL: DIQMTQSPSSLSASVGDRVTITCRASQDISNYLNWYQQKPGKAPKLLIYYTSRLHSGVPSRFSGSGSGTDYTFTISSLQPEDIATYYCQQGDTFPWTFGGGTKLEIK

What was measured:
[1] = target: T1, hCRTAM蛋白 (screening ELISA, tag not stated) (human); assay: ELISA, hybridoma subclone supernatant on hCRTAM protein
[2] = target: T2, cCRTAM-His (猴源CRTAM蛋白胞外区 + His标签) (猴源 (食蟹猴, cynomolgus monkey)); assay: ELISA, cCRTAM-His coated at 2 μg/mL

| Binder | binding [1] | binding [2] |
| --- | --- | --- |
| B1 | binds |  |
| B2 | binds |  |
| B3 | binds |  |
| B4 |  | binds |
